Measured values reported in patent publication US20240352477A1 (ACADEMIA SINICA, published 2024).
Results are given in words; binding and its absence hold for the method and conditions named. In cells and extracts the contact can be indirect. Some results given as binding are weak or reduced against the parent protein; the word gives no strength. Where a sequence is shown, tags or fusion partners need not be part of it.

Sequences of proteins named here, by UniProt entry; tags and fusion partners are left off. A change or cut given only in a name is not applied to a line headed by its entry.
UniProt Q2RBF0: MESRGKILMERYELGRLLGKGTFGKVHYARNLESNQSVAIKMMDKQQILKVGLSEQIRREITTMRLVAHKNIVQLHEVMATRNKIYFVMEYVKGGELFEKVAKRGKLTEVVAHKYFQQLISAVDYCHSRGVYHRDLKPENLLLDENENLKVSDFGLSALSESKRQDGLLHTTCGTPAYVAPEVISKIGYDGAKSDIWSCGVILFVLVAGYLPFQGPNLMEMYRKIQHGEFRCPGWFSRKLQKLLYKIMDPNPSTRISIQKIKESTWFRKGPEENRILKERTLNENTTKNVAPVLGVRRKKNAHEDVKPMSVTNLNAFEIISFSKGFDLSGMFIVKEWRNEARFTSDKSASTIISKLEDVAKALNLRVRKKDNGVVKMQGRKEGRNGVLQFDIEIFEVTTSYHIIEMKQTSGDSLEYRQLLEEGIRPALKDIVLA

Legend:
[1] = molecular target: CIPK15-HA (Ubi:CIPK15-HA) (Oryza sativa (rice)) (UniProt Q2RBF0); assay: co-IP with GFP-Trap from co-transfected rice protoplasts, immunoblot
[2] = molecular target: CIPK15-HA (Ubi:CIPK15-HA) (Oryza sativa (rice)) (UniProt Q2RBF0); assay: co-IP with GFP-Trap from co-transfected rice protoplasts (FIG. 3e)

B1: VDAC1-GFP (Ubi:VDAC1-GFP) (other, rice, UniProt Q6K548 2-274, looked up)
chain: VGPGLYPEIGKKARDLLYRDYQTDHKFTLTTYTSNGVAITATSTKKADLIFGEIQSQIKNKNITVDVKANSDSNVVTTVTVDELTPGLKSILSFAVPDQRSGKFELQYSHDYAGVSASIGLTASPVVNLSSVFGTKALAVGADVSLDTATGNLTKYNAGLSFSNDDLIASLNLNNKGDSLTASYYHIVNHSATAVGAELTHSFSSNENSLTFGTQHTLDPLTVVKARFNNSGKASALLQHEWRPKSVWTISAEVDTKAIDKSSKVGIAVALKP
notes: Expressed transiently in rice protoplasts and pulled down with GFP-Trap; not shown: GFP reporter (pUbi:ccdB-GFP vector)
Question: Which results are given for B1?
Answer: binding [1]: binds; binding [2]: binds
